These are yes or no findings as the source states them, for the method shown. Binding seen in cells or lysates may run through a third protein. A yes stands for co-enrichment or nearness to the bait. Other partners may have been found.
Biological target: Emx2-3xFlag-V5 (transiently overexpressed in P19 cells) (UniProt Q04744)
Assay: affinity purification with mass spectrometry

By UniProt entry, the sequences of proteins in these tests, tags left out.
UniProt Q04744: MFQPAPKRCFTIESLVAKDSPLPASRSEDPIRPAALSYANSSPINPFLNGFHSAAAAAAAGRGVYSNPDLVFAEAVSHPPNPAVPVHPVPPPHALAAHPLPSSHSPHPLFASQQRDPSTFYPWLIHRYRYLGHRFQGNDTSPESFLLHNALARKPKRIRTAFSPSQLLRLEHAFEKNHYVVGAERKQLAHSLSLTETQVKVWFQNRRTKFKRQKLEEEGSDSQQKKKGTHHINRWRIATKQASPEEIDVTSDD

- binding: binds
B1: Ldb1, endogenous in P19 cells (protein, UniProt P70662 1-411)
chain: MSVGCACPGCSSKSFKLYSPKEPPNGNAFPPFHPGTMLDRDVGPTPMYPPTYLEPGIGRHTPYGNQTDYRIFELNKRLQNWTEECDNLWWDAFTTEFFEDDAMLTITFCLEDGPKRYTIGRTLIPRYFRSIFEGGATELYYVLKHPKEAFHSNFVSLDCDQGSMVTQHGKPMFTQVCVEGRLYLEFMFDDMMRIKTWHFSIRQHRELIPRSILAMHAQDPQMLDQLSKNITRCGLSNSTLNYLRLCVILEPMQELMSRHKTYSLSPRDCLKTCLFQKWQRMVAPPAEPARQQPSKRRKRKMSGGSTMSSGGGNTNNSNSKKKSPASTFALSSQVPDVMVVGEPTLMGGEFGDEDERLITRLENTQFDAANGIDDEDSFNNSPALGANSPWNSKPPSSQESKSENPTSQASQ

— paper doi:10.1101/2024.09.19.613943
